# From paper PMC12549899 (Nature Communications, 2025)
# Where “and” joins values, the source holds several entries; their conditions need not be identical. Equal values may be shown once.
# Target: T1, DrOTOP1 (Danio rerio, UniProt Q7ZWK8)
# T1 construct: A previously generated codon-optimized full-length DrOTOP1[8]; (UniProt: Q7ZWK8) construct; expressed in transfected cells; host or cells: HEK-293 (CRL-1573, ATCC)
# T1 sequence (Q7ZWK8 1-586): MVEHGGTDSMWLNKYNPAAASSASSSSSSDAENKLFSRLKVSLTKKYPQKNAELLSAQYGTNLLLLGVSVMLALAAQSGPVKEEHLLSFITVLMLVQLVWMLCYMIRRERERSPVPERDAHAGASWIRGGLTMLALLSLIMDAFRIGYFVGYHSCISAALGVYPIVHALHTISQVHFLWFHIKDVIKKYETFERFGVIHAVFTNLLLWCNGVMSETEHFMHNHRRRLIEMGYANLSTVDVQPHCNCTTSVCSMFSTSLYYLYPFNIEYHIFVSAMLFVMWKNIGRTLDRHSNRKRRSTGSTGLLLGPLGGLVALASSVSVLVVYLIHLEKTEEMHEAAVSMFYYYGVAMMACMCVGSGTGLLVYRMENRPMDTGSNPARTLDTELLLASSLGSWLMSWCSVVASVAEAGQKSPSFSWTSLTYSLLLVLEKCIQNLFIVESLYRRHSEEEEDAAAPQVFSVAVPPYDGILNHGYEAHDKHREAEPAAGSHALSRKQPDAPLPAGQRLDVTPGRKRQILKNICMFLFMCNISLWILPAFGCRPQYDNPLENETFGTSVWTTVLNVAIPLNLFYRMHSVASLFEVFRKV
# Assay: Whole-cell patch-clamp, inhibition of acid-evoked currents, WT DrOTOP1 expressed in HEK-293 cells
# Format: cell-based, zebrafish (Danio rerio)
# Settings: 200 µM compound; HEK-293 cells expressing DrOTOP1; Vm -80 mV; values of single cells, FDA 1-3 = FDA-approved drugs; listed as FDA 3, 200 µM
# From the text: The 50 molecules identified were individually tested by whole-cell patch-clamp electrophysiology for effects on DrOTOP1 expressed in human embryonic kidney (HEK)−293 cells. […] This approach enabled us to observe the on- and off-responses of each compound. To quantify the effect of each compound, we compared the current magnitude during compound application immediately before wash-off, to the peak inward current following its removal (Supplementary Fig. 2A).
# HEK-293 cells (CRL-1573, ATCC) were cultured in DMEM (Thermofisher 11995073) containing 10% fetal bovine serum (Life Technology 16000044) and Penicillin-Streptomycin (100 I.U./mL) and (100 µg/mL), respectively. […]
# Whole-cell patch-clamp recording was performed as previously described[6],[22],[25]. Recordings were made with an Axopatch 200B amplifier, digitized with a Digidata 1322a 16-bit data acquisition system, acquired with pClamp 8.2 and analyzed with Clampfit 10 (Molecular Devices). […]
# All data are presented as mean ± SEM unless otherwise noted, and each data point represents an independent replicant. Inhibition of compounds was quantified as ((I2peak-I1)/(I2peak))*100, where I1 is the current immediately before wash-off and I2peak is the maximum recovered current (Supplementary Fig. 2). Hill coefficients were determined by the following equation: Y = Bmax*X^h/(Kd^h + X^h).
smiles,measurement,value
"CN1c2ccccc2C(NCCCCCCC(=O)O)c2ccc(Cl)cc2S1(=O)=O (stereo not shown) [tianeptine, reference compound]","Inhibition of pH 5.5-induced currents, screen 2",18.5311% and 8.87% and 13.0177% and 10.1695%
